# For some assays here: Expression grades refer to the transcript from which the peptide derives; gene names, where given, were looked up from the sequence.
# Experiments:
# [1] = system: source genes (mRNA) in tumors compared to a panel of normal tissues; experiment: Expression profiling of genes encoding the peptides (Affymetrix microarray, expression scores); set-up: species or system human; key: very highly over-expressed in tumors compared to a panel of normal tissues (+++); highly over-expressed in tumors compared to a panel of normal tissues (++); over-expressed in tumors compared to a panel of normal tissues (+); settings: over-expression of the source gene in tumors compared to a panel of normal tissues; Affymetrix microarrays
# [2] = system: tumors compared to a panel of normal tissues; experiment: Identification and label-free LC-MS quantitation of HLA-presented tumor associated peptides (presentation profiles/scores); set-up: species or system human; key to Peptide Presentation (presentation score): very highly over-presented on tumors compared to a panel of normal tissues (+++); highly over-presented on tumors compared to a panel of normal tissues (++); over-presented on tumors compared to a panel of normal tissues (+); settings: for Peptide Presentation (presentation score): over-presentation on tumors compared to a panel of normal tissues, label-free LC-MS quantitation of HLA peptides
substance,measurement,setting,value
75: peptide found in COL1A1 (gene looked up) (FSFVDLRLL; listed as Homo sapiens) [compound 75],Gene Expression (expression score),[1],+++
same,Peptide Presentation (presentation score),[2],+++
79: peptide found in FN1 (gene looked up) (VVYEGQLISI; listed as Homo sapiens) [compound 79],Gene Expression (expression score),[1],+++
same,Peptide Presentation (presentation score),[2],+
12: peptide found in PTPN14 (gene looked up) (AQYKFVYQV; listed as Homo sapiens) [compound 12],Gene Expression (expression score),[1],+
same,peptide additionally detected on esophageal cancers (positive/measured samples),[2],2/17
same,peptide additionally detected on kidney cancers (positive/measured samples),[2]; kidney cancers,1/18
same,peptide additionally detected on lung cancers (positive/measured samples),[2],1/91
same,peptide additionally detected on ovarian cancers (positive/measured samples),[2],1/20
same,Peptide Presentation (presentation score),[2],+++
same,peptide additionally detected on stomach cancers (positive/measured samples),[2]; stomach cancers,1/46
61: peptide found in TRPV2 (gene looked up) (SMYDGLLQA; listed as Homo sapiens) [compound 61],Gene Expression (expression score),[1],++
same,Peptide Presentation (presentation score),[2],++
145: peptide found in NONO (gene looked up) (TTFPRPVTV; listed as Homo sapiens) [compound 145],Gene Expression (expression score),[1],+
same,Peptide Presentation (presentation score),[2],+++
67: peptide found in MCM4 (gene looked up) (VIWGTDVNV; listed as Homo sapiens) [compound 67],Gene Expression (expression score),[1],+++
same,Peptide Presentation (presentation score),[2],++
44: peptide found in SLC6A15 (gene looked up) (ILAQVGFSV; listed as Homo sapiens) [compound 44],Gene Expression (expression score),[1],++
same,Peptide Presentation (presentation score),[2],+++
139: peptide found in STAT2 (gene looked up) (SIDRNPPQL; listed as Homo sapiens) [compound 139],Gene Expression (expression score),[1],+
91: peptide found in PLEC (gene looked up) (LLFNDVQTL; listed as Homo sapiens) [compound 91],Gene Expression (expression score),[1],+++
same,Peptide Presentation (presentation score),[2],+
140: peptide found in CCNA2 (gene looked up) (SLLNPPETLNL; listed as Homo sapiens) [compound 140],Gene Expression (expression score),[1],++
same,Peptide Presentation (presentation score),[2],+++
113: peptide found in GFPT2 (gene looked up) (LMMSEDRISL; listed as Homo sapiens) [compound 113],Gene Expression (expression score),[1],++
same,peptide additionally detected on brain cancers (positive/measured samples),[2],5/34
same,peptide additionally detected on breast cancers (positive/measured samples),[2],3/18
same,peptide additionally found on colon or rectum cancers (positive/measured samples),[2],2/29
same,peptide additionally detected on esophageal cancers (positive/measured samples),[2],2/18
same,peptide additionally detected on gallbladder or bile duct cancers (positive/measured samples),[2]; gallbladder/bile duct cancers,3/17
same,peptide additionally found on head and neck cancers (positive/measured samples),[2],1/8
same,peptide additionally detected on liver cancers (positive/measured samples),[2],1/21
same,peptide additionally detected on lung cancers (positive/measured samples),[2],18/107
same,peptide additionally found on lymph node cancers (positive/measured samples),[2],3/20
same,peptide additionally found on pancreas cancers (positive/measured samples),[2]; pancreas cancers,1/19
same,peptide additionally detected on prostate cancers (positive/measured samples),[2]; prostate cancers,1/87
same,peptide additionally found on skin cancers (positive/measured samples),[2],2/18
same,peptide additionally detected on urinary bladder cancers (positive/measured samples),[2],2/15
same,peptide additionally found on uterus cancers (positive/measured samples),[2],1/16
153: peptide found in COPG1 (gene looked up) (ALPKEDPTAV; listed as Homo sapiens) [compound 153],Gene Expression (expression score),[1],+
same,Peptide Presentation (presentation score),[2],+
99: peptide found in PRKDC (gene looked up) (ALESFLKQV; listed as Homo sapiens) [compound 99],Gene Expression (expression score),[1],+
same,Peptide Presentation (presentation score),[2],+
92: peptide found in PLEC (gene looked up) (YLTNEGIAHL; listed as Homo sapiens) [compound 92],Gene Expression (expression score),[1],+++
same,Peptide Presentation (presentation score),[2],+
126: peptide found in PRKDC (gene looked up) (ALLSLDPAAV; listed as Homo sapiens) [compound 126],Gene Expression (expression score),[1],+
same,Peptide Presentation (presentation score),[2],+++
34: peptide found in GFPT2 (gene looked up) (FLEDDDIAAV; listed as Homo sapiens) [compound 34],Gene Expression (expression score),[1],++
same,Peptide Presentation (presentation score),[2],+++
95: peptide found in MCM4 (gene looked up) (ALADDDFLTV; listed as Homo sapiens) [compound 95],Gene Expression (expression score),[1],+++
same,Peptide Presentation (presentation score),[2],++
80: peptide found in FN1 (gene looked up) (LLPGTEYVVSV; listed as Homo sapiens) [compound 80],Gene Expression (expression score),[1],+++
same,Peptide Presentation (presentation score),[2],+
26: peptide found in MAN2A1 (gene looked up) (SLYTALTEA; listed as Homo sapiens) [compound 26],Gene Expression (expression score),[1],+
136: peptide found in ASNS (gene looked up) (KLFPGFEIETV; listed as Homo sapiens) [compound 136],Gene Expression (expression score),[1],+++
same,Peptide Presentation (presentation score),[2],+++
128 (ALYDVRTILL; listed as Homo sapiens) [compound 128],peptide additionally detected on breast cancers (positive/measured samples),[2],2/18
same,peptide additionally found on colon or rectum cancers (positive/measured samples),[2],3/29
same,peptide additionally found on leukocytic leukemia cancers (positive/measured samples),[2],1/17
same,peptide additionally detected on lung cancers (positive/measured samples),[2],8/107
same,peptide additionally found on lymph node cancers (positive/measured samples),[2],1/20
same,peptide additionally detected on ovarian cancers (positive/measured samples),[2],1/20
same,Peptide Presentation (presentation score),[2],+++
same,peptide additionally detected on urinary bladder cancers (positive/measured samples),[2],1/15
57 (RLSELGITQA; listed as Homo sapiens) [compound 57],peptide additionally detected on brain cancers (positive/measured samples),[2],1/34
same,peptide additionally detected on breast cancers (positive/measured samples),[2],1/18
same,peptide additionally detected on esophageal cancers (positive/measured samples),[2],2/18
same,peptide additionally found on head and neck cancers (positive/measured samples),[2],2/8
same,peptide additionally detected on liver cancers (positive/measured samples),[2],1/21
same,peptide additionally detected on lung cancers (positive/measured samples),[2],8/107
same,peptide additionally found on lymph node cancers (positive/measured samples),[2],4/20
same,peptide additionally found on myeloid cell cancers (positive/measured samples),[2]; myeloid cell cancers,1/18
same,peptide additionally detected on ovarian cancers (positive/measured samples),[2],4/20
same,Peptide Presentation (presentation score),[2],++
same,peptide additionally found on skin cancers (positive/measured samples),[2],4/18
same,peptide additionally detected on urinary bladder cancers (positive/measured samples),[2],2/15
same,peptide additionally found on uterus cancers (positive/measured samples),[2],1/16
116 (SMMDPNHFL; listed as Homo sapiens) [compound 116],Peptide Presentation (presentation score),[2],++
5 (ALLTGIISKA; listed as Homo sapiens) [compound 5],peptide additionally detected on brain cancers (positive/measured samples),[2],2/34
same,peptide additionally detected on breast cancers (positive/measured samples),[2],1/18
same,peptide additionally found on colon or rectum cancers (positive/measured samples),[2],2/29
same,peptide additionally detected on esophageal cancers (positive/measured samples),[2],1/18
same,peptide additionally found on head and neck cancers (positive/measured samples),[2],1/8
same,peptide additionally detected on liver cancers (positive/measured samples),[2],1/21
same,peptide additionally detected on lung cancers (positive/measured samples),[2],8/107
same,peptide additionally found on lymph node cancers (positive/measured samples),[2],1/20
same,peptide additionally detected on ovarian cancers (positive/measured samples),[2],1/20
same,Peptide Presentation (presentation score),[2],+++
same,peptide additionally found on skin cancers (positive/measured samples),[2],1/18
same,peptide additionally detected on urinary bladder cancers (positive/measured samples),[2],2/15
same,peptide additionally found on uterus cancers (positive/measured samples),[2],1/16
51 (LLGPAGARA; listed as Homo sapiens) [compound 51],Peptide Presentation (presentation score),[2],+++
89 (KLADIQIEQL; listed as Homo sapiens) [compound 89],peptide additionally found on colon or rectum cancers (positive/measured samples),[2],2/29
same,peptide additionally found on leukocytic leukemia cancers (positive/measured samples),[2],1/17
same,peptide additionally detected on lung cancers (positive/measured samples),[2],4/107
same,peptide additionally detected on ovarian cancers (positive/measured samples),[2],4/20
same,peptide additionally detected on urinary bladder cancers (positive/measured samples),[2],4/16
98 (ALDQKVRSV; listed as Homo sapiens) [compound 98],Peptide Presentation (presentation score),[2],+
71 (VLLPEGGITAI; listed as Homo sapiens) [compound 71],Peptide Presentation (presentation score),[2],+++
166 (SLFPGQVVI; listed as Homo sapiens) [compound 166],Peptide Presentation (presentation score),[2],+++
8 (ALYTGSALDFV; listed as Homo sapiens) [compound 8],Peptide Presentation (presentation score),[2],+++
47 (LIYKDLVSV; listed as Homo sapiens) [compound 47],Peptide Presentation (presentation score),[2],+
149 (ILGTEDLIVEV; listed as Homo sapiens) [compound 149],Peptide Presentation (presentation score),[2],+
81 (VVYDDSTGLIRL; listed as Homo sapiens) [compound 81],Peptide Presentation (presentation score),[2],+++
15 (FILANEHNV; listed as Homo sapiens) [compound 15],Peptide Presentation (presentation score),[2],+++
96 (ALAPATGGGSLLL; listed as Homo sapiens) [compound 96],Peptide Presentation (presentation score),[2],+
56 (NLIGVTAEL; listed as Homo sapiens) [compound 56],Peptide Presentation (presentation score),[2],+++
